How the values were obtained:
[1] = Adhesion of enamel coating on XENOY polycarbonate panels, ASTM D-3359 (Example 77); details: 40 days at 60° C. in jar with distilled water
[2] = Appearance (haziness or incompatibility) of coated glass plates after oven ageing (Example 76); details: 140° F. (60° C.) oven for 49 days; 2% by weight on resin solids

Row | Structure (SMILES) | Percent Coating Removed [1] [%] | Appearance [2]
1 | CCCCCCCCON1C(C)(C)CC(N(CCCC)c2nc(NCCO)nc(N(CCCC)C3CC(C)(C)N(OCCCCCCCC)C(C)(C)C3)n2)CC1(C)C [Example 2, 2-[(2-Hydroxyethyl)amino]-4,6-bis[N-(1-octyloxy-2,2,6,6-tetramethylpiperidin-4-yl)butylamino]-1,3,5-triazine] | 0 | clear
2 | CN1C(C)(C)CC(OC(=O)CCCCCCCCC(=O)OC2CC(C)(C)N(C)C(C)(C)C2)CC1(C)C [HA 2, bis(1,2,2,6,6-pentamethylpiperidin-4-yl) sebacate, reference compound] | 85 | 
3 | CCCCN(c1nc(NCCCCCC(=O)O)nc(N(CCCC)C2CC(C)(C)N(OC3CCCCC3)C(C)(C)C2)n1)C1CC(C)(C)N(OC2CCCCC2)C(C)(C)C1 [Example 15, N-{4,6-Bis[(1-cyclohexyloxy-2,2,6,6-tetramethylpiperidin-4-yl)butylamino]-1,3,5-triazin-2-yl}-6-aminohexanoic acid] |  | clear
4 | CCCCCCCCON1C(C)(C)CC(N(CCCC)c2nc(NCCCCCC(=O)O)nc(N(CCCC)C3CC(C)(C)N(OCCCCCCCC)C(C)(C)C3)n2)CC1(C)C [Example 16, N-{4,6-Bis[(1-octyloxy-2,2,6,6-tetramethylpiperidin-4-yl)butylamino]-1,3,5-triazin-2-yl}-6-aminohexanoic acid] |  | clear
5 | CCCCCCCCON1C(C)(C)CC(OC(=O)CCCCCCCCC(=O)OC2CC(C)(C)N(OCCCCCCCC)C(C)(C)C2)CC1(C)C [HA 1, bis(1-octyloxy-2,2,6,6-tetramethylpiperidin-4-yl) sebacate, reference compound] |  | cloudy
6 | CCCCN(c1nc(NCCO)nc(N(CCCC)C2CC(C)(C)N(OC3CCCCC3)C(C)(C)C2)n1)C1CC(C)(C)N(OC2CCCCC2)C(C)(C)C1 [Example 1, 2-[(2-Hydroxyethyl)amino]-4,6-bis[N-(1-cyclohexyloxy-2,2,6,6-tetramethylpiperidin-4-yl)-butylamino]-1,3,5-triazine] | 0 | clear

Source: US5216156A, “Non-migrating 1-hydrocarbyloxy-2,2,6,6-tetramethylpiperidine 1,3,5-triazine derivatives” (Ciba-Geigy Corporation, priority 1992, dated 1993)
